Test results: the supplement of paper PMC10849652
This is one part of the list.

The chains behind the UniProt entries cited, without tags or fusion partners. Where a name states a change or a piece, a line headed by the entry shows the natural chain unless it says otherwise.
UniProt Q7Z4H7: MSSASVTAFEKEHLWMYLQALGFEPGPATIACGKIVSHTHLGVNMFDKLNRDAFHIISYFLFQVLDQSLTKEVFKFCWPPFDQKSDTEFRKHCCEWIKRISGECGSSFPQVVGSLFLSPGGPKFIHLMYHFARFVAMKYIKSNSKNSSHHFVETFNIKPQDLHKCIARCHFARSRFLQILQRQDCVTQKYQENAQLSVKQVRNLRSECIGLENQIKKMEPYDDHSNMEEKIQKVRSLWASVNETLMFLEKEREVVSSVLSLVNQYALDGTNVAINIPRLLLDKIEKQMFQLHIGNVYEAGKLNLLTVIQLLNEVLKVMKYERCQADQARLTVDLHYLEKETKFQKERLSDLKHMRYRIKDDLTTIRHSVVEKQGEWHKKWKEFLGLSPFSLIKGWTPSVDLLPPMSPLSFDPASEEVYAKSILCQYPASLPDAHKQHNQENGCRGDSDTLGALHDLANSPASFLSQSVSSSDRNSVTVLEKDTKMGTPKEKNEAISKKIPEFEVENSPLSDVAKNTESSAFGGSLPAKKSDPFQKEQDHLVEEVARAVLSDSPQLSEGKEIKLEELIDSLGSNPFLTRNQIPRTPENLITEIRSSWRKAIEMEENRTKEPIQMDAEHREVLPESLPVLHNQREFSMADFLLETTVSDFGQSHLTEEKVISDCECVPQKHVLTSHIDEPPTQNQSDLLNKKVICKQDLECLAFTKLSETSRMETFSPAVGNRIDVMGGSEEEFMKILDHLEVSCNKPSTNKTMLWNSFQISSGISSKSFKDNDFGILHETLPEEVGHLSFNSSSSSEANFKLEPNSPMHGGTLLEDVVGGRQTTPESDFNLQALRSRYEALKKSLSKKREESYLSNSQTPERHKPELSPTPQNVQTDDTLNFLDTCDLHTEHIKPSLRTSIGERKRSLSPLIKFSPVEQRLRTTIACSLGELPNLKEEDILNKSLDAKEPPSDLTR
UniProt P52657, whole entry, looked up: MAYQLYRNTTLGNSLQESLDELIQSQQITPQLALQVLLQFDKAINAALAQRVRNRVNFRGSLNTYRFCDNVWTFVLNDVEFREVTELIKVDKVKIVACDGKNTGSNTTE
UniProt Q9UBN7: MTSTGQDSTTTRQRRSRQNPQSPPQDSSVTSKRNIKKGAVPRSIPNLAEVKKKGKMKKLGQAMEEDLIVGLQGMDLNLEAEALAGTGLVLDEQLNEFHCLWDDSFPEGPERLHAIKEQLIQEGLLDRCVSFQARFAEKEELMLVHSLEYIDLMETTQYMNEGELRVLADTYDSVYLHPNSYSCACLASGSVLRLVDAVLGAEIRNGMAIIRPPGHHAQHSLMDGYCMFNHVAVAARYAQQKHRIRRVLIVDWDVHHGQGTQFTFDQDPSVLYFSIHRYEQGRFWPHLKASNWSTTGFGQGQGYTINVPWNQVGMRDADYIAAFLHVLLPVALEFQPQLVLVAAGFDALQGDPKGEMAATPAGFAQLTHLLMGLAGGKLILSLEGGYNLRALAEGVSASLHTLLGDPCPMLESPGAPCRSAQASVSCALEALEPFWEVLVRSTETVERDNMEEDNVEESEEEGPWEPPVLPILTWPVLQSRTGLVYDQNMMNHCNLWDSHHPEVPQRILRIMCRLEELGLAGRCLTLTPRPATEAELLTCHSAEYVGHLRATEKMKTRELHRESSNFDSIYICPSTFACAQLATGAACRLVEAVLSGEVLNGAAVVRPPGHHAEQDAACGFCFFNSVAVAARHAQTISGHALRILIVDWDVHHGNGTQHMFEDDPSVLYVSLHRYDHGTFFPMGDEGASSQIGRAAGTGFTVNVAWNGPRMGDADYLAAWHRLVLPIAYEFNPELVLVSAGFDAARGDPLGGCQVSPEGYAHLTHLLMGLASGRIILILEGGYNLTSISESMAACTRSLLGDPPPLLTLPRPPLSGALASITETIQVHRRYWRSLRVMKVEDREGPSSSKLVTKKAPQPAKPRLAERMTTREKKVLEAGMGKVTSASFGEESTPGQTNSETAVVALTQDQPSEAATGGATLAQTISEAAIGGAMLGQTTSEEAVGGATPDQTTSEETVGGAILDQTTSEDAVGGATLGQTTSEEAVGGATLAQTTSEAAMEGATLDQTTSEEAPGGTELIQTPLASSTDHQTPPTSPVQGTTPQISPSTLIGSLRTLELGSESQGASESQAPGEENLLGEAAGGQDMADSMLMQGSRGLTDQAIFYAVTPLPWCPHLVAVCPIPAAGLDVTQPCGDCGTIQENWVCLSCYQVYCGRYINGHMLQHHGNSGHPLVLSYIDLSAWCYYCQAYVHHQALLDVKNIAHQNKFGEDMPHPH
UniProt Q7Z4H3: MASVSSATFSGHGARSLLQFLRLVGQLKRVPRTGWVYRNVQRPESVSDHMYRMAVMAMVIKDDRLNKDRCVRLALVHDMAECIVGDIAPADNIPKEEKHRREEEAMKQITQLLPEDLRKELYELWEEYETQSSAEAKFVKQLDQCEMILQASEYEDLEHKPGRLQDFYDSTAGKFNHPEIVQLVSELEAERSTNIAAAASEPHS
UniProt Q9BX10: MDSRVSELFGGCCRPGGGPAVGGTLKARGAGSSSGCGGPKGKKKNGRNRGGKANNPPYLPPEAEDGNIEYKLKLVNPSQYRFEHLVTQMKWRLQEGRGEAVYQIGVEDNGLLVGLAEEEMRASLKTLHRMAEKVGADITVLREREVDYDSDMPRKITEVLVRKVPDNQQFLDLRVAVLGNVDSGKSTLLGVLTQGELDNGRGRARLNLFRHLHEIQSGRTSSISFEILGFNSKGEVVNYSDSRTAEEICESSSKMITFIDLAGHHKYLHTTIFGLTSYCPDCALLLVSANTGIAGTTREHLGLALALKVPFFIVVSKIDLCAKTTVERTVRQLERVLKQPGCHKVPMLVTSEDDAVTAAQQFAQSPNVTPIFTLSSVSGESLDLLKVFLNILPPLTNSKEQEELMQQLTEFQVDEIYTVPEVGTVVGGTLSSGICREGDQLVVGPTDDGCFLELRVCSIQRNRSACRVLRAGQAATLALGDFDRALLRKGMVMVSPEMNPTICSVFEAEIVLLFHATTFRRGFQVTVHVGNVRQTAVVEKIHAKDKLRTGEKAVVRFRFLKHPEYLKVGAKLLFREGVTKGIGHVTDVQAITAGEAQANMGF
UniProt O00178: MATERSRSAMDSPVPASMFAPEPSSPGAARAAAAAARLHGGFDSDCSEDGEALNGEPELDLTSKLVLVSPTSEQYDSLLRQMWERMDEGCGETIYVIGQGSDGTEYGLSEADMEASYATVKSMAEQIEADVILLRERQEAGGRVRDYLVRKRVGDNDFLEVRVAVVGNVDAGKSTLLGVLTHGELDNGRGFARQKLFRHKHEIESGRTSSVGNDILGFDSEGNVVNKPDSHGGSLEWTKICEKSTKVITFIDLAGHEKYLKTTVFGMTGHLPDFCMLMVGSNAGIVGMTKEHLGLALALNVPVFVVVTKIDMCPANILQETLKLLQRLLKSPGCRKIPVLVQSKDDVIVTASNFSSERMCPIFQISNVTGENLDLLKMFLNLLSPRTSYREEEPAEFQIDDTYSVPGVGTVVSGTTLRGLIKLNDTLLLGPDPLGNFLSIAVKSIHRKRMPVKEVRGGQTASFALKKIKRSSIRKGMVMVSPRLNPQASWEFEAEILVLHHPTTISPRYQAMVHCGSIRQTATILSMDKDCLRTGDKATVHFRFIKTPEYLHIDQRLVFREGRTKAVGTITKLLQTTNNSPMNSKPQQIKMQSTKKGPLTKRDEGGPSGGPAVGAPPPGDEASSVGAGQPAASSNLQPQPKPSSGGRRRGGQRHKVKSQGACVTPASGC
UniProt Q9HAV7: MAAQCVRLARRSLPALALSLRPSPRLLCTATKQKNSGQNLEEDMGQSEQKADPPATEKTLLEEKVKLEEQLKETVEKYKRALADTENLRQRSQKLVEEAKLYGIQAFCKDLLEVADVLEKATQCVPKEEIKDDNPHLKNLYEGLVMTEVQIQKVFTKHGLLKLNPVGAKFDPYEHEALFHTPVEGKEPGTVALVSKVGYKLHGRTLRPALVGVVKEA
UniProt P49590: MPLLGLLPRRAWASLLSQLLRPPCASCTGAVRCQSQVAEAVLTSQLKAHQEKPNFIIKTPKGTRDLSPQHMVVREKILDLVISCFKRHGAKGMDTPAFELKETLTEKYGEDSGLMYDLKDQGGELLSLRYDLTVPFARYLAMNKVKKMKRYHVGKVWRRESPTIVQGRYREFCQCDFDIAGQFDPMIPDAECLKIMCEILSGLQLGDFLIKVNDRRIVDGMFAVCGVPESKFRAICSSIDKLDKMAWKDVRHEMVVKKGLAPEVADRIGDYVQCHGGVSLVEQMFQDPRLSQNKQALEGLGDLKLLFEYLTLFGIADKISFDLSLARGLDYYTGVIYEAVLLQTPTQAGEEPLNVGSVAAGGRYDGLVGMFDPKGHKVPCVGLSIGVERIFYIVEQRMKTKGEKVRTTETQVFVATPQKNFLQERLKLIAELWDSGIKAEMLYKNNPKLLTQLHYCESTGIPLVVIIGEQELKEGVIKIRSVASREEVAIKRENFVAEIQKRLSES
UniProt Q92759: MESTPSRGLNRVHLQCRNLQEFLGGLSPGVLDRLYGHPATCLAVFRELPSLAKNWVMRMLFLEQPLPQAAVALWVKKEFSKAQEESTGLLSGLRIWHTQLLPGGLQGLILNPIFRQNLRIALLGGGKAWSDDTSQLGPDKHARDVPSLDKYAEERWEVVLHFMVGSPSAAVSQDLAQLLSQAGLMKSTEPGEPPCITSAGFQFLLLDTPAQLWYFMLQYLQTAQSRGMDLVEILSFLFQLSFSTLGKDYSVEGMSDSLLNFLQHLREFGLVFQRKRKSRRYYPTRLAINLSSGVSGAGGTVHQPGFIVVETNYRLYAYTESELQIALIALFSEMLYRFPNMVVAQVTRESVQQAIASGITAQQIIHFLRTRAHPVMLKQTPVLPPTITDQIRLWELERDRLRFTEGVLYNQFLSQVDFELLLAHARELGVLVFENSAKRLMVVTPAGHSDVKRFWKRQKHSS
UniProt P10412, whole entry, looked up: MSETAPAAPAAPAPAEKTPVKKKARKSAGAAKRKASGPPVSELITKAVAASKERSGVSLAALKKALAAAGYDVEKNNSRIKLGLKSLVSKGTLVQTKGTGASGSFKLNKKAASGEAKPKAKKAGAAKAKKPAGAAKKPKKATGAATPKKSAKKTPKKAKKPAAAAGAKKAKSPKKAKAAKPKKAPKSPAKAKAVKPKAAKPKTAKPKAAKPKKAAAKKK
UniProt P32780: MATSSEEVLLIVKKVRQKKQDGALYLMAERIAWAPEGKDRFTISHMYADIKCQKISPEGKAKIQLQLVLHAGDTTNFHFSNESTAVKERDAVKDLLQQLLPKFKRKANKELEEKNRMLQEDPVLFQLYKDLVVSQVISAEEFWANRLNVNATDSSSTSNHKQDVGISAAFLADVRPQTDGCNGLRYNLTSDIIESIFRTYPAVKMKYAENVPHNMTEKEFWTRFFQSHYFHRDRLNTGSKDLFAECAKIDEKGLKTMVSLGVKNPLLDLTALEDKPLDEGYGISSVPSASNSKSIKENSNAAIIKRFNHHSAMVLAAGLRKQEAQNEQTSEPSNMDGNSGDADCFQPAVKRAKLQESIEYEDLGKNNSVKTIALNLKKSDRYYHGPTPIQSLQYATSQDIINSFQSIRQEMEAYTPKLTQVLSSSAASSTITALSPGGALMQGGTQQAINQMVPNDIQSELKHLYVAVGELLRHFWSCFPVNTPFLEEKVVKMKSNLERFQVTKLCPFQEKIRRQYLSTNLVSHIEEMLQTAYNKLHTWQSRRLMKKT
UniProt P06396, whole entry, looked up: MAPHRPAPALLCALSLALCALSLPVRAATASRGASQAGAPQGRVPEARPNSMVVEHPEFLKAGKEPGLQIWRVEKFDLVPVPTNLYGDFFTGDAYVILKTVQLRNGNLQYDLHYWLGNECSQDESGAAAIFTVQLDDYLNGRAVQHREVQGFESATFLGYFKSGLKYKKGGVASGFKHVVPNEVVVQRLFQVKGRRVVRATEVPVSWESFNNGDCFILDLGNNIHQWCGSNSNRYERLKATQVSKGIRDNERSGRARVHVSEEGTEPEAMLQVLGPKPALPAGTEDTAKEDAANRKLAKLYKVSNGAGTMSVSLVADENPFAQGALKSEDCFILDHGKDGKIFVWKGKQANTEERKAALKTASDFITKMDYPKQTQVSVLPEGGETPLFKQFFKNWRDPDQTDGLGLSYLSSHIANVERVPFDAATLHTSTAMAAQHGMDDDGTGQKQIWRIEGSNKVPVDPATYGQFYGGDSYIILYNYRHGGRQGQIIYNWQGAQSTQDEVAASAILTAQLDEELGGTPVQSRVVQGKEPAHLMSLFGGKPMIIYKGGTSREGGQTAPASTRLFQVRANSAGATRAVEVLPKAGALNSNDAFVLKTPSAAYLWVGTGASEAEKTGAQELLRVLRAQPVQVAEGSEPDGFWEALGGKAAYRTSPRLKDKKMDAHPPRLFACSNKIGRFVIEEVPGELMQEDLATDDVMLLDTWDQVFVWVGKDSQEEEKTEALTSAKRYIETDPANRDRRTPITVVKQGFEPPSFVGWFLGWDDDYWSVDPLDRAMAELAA

Key:
Assay in all cases: log2 fold change, soluble protein after heating vs DMSO (PISA); higher = thermal stabilisation; K562 lysate, 10 uM; active = over 0.2 and 3.5 SD of the protein, either way, in both replicates (recomputed)
vemurafenib = compound: CCCS(=O)(=O)Nc1ccc(F)c(C(=O)c2c[nH]c3ncc(-c4ccc(Cl)cc4)cc23)c1F [vemurafenib]
In short: (§1)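 A 30 min treatment with 10 μM compound was applied to crude K562 extract at 1 mg/mL protein in PBS pH 7.4 with 1 mM MgCl2. Heating for 3 min spanned 48°C-58°C, after which aliquots were pooled, adjusted to 0.5% NP-40 at 4°C and spun at 21,000xg for 90 min. TMTpro 16plex LC-MS/MS of the supernatant, with channel sums equalised, gave values recorded as log-two fold change in thermal stability against solvent controls, from duplicates.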

[1] = compound: CCCS(=O)(=O)Nc1ccc(F)c(C(=O)c2c[nH]c3ncc(Cl)cc23)c1F
In short: as §1

barasertib = compound: CCN(CCCOc1ccc2c(Nc3cc(CC(=O)Nc4cccc(F)c4)[nH]n3)ncnc2c1)CCOP(=O)(O)O [barasertib]
In short: as §1

[2] = compound: CC[C@@H]1C(=O)N(C)c2cnc(Nc3ccc(C(=O)NC4CCN(C)CC4)cc3OC)nc2N1C1CCCC1
In short: as §1

volasertib = compound: CC[C@@H]1C(=O)N(C)c2cnc(Nc3ccc(C(=O)N[C@H]4CC[C@H](N5CCN(CC6CC6)CC5)CC4)cc3OC)nc2N1C(C)C [volasertib]
In short: as §1

[3] = compound: CCn1c(C(=O)N(C2CC2)C2CC2)cc2c3c(ncn3C)c(Nc3cc(C)n(C)n3)nc21
In short: as §1

[4] = compound: CCn1cc(-c2ccnc3[nH]c(-c4cccc(CN(C)C)c4)cc23)c(-c2ccc(NC(=O)N(C)C)cc2)n1
In short: as §1

[5] = compound: CN1CCC(CNc2ccc3ncc(-c4cccc(OC(F)(F)F)c4)n3n2)CC1
In short: as §1

saracatinib = compound: CN1CCN(CCOc2cc(OC3CCOCC3)c3c(Nc4c(Cl)ccc5c4OCO5)ncnc3c2)CC1 [saracatinib]
In short: as §1

sotrastaurin = compound: CN1CCN(c2nc(C3=C(c4c[nH]c5ccccc45)C(=O)NC3=O)c3ccccc3n2)CC1 [sotrastaurin]
In short: as §1

alvocidib = compound: CN1CC[C@H](c2c(O)cc(O)c3c(=O)cc(-c4ccccc4Cl)oc23)[C@H](O)C1 [alvocidib]
In short: as §1

Tubastatin A = compound: CN1CCc2c(c3ccccc3n2Cc2ccc(C(=O)NO)cc2)C1 [Tubastatin A]
In short: as §1

[6] = compound: CNC(=O)C1=CC=CC=C1NC2=NC(=NC=C2Cl)NC3=C(C=C(C=C3)N4CCOCC4)OC
In short: as §1

defactinib = compound: CNC(=O)c1ccc(Nc2ncc(C(F)(F)F)c(NCc3nccnc3N(C)S(C)(=O)=O)n2)cc1 [defactinib]
In short: as §1

[7] = compound: CNc1nc(-c2ccc3c(N)n[nH]c3c2)cc(N2C[C@@H](C(=O)NC3CCCCC3)CC[C@H]2C)n1
In short: as §1

encorafenib = compound: COC(=O)N[C@@H](C)CNc1nccc(-c2cn(C(C)C)nc2-c2cc(Cl)cc(NS(C)(=O)=O)c2F)n1 [encorafenib]
In short: as §1

[8] = compound: COC(=O)[C@H](CCSC)NC(=O)C1=C(C=C(C=C1)NC[C@H](CS)N)C2=CC=CC=C2
In short: as §1

alisertib = compound: COc1cc(Nc2ncc3c(n2)-c2ccc(Cl)cc2C(c2c(F)cccc2OC)=NC3)ccc1C(=O)O [alisertib]
In short: as §1

[9] = compound: COc1cc2nc(-c3cc(F)ccc3O)nc(N[C@@H]3CNC[C@H]3C(C)(C)O)c2cc1OC
In short: as §1

gefitinib = compound: COc1cc2ncnc(Nc3ccc(F)c(Cl)c3)c2cc1OCCCN1CCOCC1 [gefitinib]
In short: as §1

Measured: log2 fold change

HAUS6 (UniProt Q7Z4H7)
inactive: vemurafenib 0.004 | [1] 0.092 | barasertib 0.025 | [2] 0.012 | volasertib -0.068 | [3] 0.015 | [4] -0.063 | [5] 0.014 | saracatinib 0.01 | sotrastaurin 0.022 | alvocidib -0.043 | Tubastatin A -0.084 | [6] 0.008 | defactinib 0.031 | [7] -0.004 | encorafenib 0.031 | [8] -0.025 | alisertib 0.03 | [9] 0.019 | gefitinib 0.017

GTF2A2 (UniProt P52657)
inactive: vemurafenib 0.011 | [1] 0 | barasertib -0.005 | [2] 0.003 | volasertib -0.013 | [3] 0.011 | [4] -0.011 | [5] 0.058 | saracatinib 0.03 | sotrastaurin -0.052 | alvocidib 0.006 | Tubastatin A 0.014 | [6] 0.029 | defactinib 0.011 | [7] 0.055 | encorafenib 0.008 | [8] -0.024 | alisertib 0.032 | [9] -0.008 | gefitinib -0.053

GTF3C3 (UniProt Q9Y5Q9)
inactive: vemurafenib 0.062 | [1] 0.06 | barasertib 0.01 | [2] -0.088 | volasertib -0.014 | [3] 0.003 | [4] -0.158 | [5] 0.005 | saracatinib 0.049 | sotrastaurin -0.013 | alvocidib -0.018 | Tubastatin A -0.147 | [6] 0.043 | defactinib -0.007 | [7] 0.04 | encorafenib -0.001 | [8] 0.065 | alisertib -0.006 | [9] 0.02 | gefitinib -0.006

HDAC6 (UniProt Q9UBN7)
inactive: vemurafenib -0.02 | [1] 0.01 | barasertib -0.017 | [2] -0.035 | volasertib -0.047 | [3] -0.023 | [4] 0.073 | [5] -0.011 | saracatinib -0.011 | sotrastaurin 0.008 | alvocidib -0.006 | Tubastatin A 0.11 | [6] -0.015 | defactinib -0.003 | [7] -0.013 | encorafenib -0.017 | [8] 0.06 | alisertib 0.013 | [9] 0.001 | gefitinib -0.012

HDDC2 (UniProt Q7Z4H3)
inactive: vemurafenib -0.058 | [1] 0.017 | barasertib 0.01 | [2] 0.033 | volasertib 0.01 | [3] 0.008 | [4] -0.009 | [5] 0.01 | saracatinib -0.023 | sotrastaurin -0.019 | alvocidib 0.005 | Tubastatin A 0.006 | [6] -0.019 | defactinib 0.07 | [7] 0.017 | encorafenib -0.039 | [8] -0.002 | alisertib -0.038 | [9] 0.002 | gefitinib -0.035

HACD3 (UniProt Q9P035)
inactive: vemurafenib 0 | [1] 0.027 | barasertib 0.039 | [2] 0.086 | volasertib 0.024 | [3] -0.03 | [4] -0.066 | [5] 0.024 | saracatinib 0.042 | sotrastaurin 0.004 | alvocidib 0.026 | Tubastatin A -0.001 | [6] -0.028 | defactinib 0.055 | [7] -0.01 | encorafenib 0.006 | [8] -0.031 | alisertib 0.032 | [9] -0.123 | gefitinib -0.002

GTPBP2 (UniProt Q9BX10)
inactive: vemurafenib 0.005 | [1] 0.005 | barasertib 0.034 | [2] -0.03 | volasertib -0.104 | [3] 0.043 | [4] 0.124 | [5] -0.074 | saracatinib 0.047 | sotrastaurin 0.043 | alvocidib -0.001 | Tubastatin A -0.045 | [6] 0.039 | defactinib 0.018 | [7] -0.037 | encorafenib 0.002 | [8] 0.079 | alisertib 0.034 | [9] -0.07 | gefitinib 0.058

GTPBP1 (UniProt O00178)
inactive: vemurafenib 0.038 | [1] 0.034 | barasertib -0.027 | [2] 0.012 | volasertib -0.008 | [3] 0.022 | [4] -0.138 | [5] 0.033 | saracatinib 0.023 | sotrastaurin 0.001 | alvocidib 0 | Tubastatin A 0.006 | [6] 0.018 | defactinib 0.018 | [7] 0.008 | encorafenib 0.003 | [8] 0.029 | alisertib -0.005 | [9] -0.004 | gefitinib -0.025

GTF3C4 (UniProt Q9UKN8)
inactive: vemurafenib -0.011 | [1] 0.033 | barasertib 0.012 | [2] -0.04 | volasertib -0.036 | [3] 0.001 | [4] 0 | [5] -0.051 | saracatinib 0.005 | sotrastaurin 0.009 | alvocidib 0.011 | Tubastatin A -0.03 | [6] -0.013 | defactinib 0.015 | [7] -0.015 | encorafenib 0.034 | [8] -0.004 | alisertib 0.005 | [9] 0.022 | gefitinib 0

Retrieved one by one from the entries so far, two records:
HDDC2 (UniProt Q7Z4H3)
inactive: vemurafenib -0.058 | [1] 0.017 | barasertib 0.01 | [2] 0.033 | volasertib 0.01 | [3] 0.008 | [4] -0.009 | [5] 0.01 | saracatinib -0.023 | sotrastaurin -0.019 | alvocidib 0.005 | Tubastatin A 0.006 | [6] -0.019 | defactinib 0.07 | [7] 0.017 | encorafenib -0.039 | [8] -0.002 | alisertib -0.038 | [9] 0.002 | gefitinib -0.035

GTF3C4 (UniProt Q9UKN8)
inactive: vemurafenib -0.011 | [1] 0.033 | barasertib 0.012 | [2] -0.04 | volasertib -0.036 | [3] 0.001 | [4] 0 | [5] -0.051 | saracatinib 0.005 | sotrastaurin 0.009 | alvocidib 0.011 | Tubastatin A -0.03 | [6] -0.013 | defactinib 0.015 | [7] -0.015 | encorafenib 0.034 | [8] -0.004 | alisertib 0.005 | [9] 0.022 | gefitinib 0

(list continues)

GRPEL1 (UniProt Q9HAV7)
inactive: vemurafenib -0.004 | [1] -0.036 | barasertib 0.043 | [2] 0.015 | volasertib 0.012 | [3] -0.02 | [4] -0.051 | [5] 0.019 | saracatinib -0.026 | sotrastaurin -0.021 | alvocidib -0.014 | Tubastatin A 0.005 | [6] -0.006 | defactinib -0.023 | [7] 0.026 | encorafenib -0.033 | [8] -0.007 | alisertib 0.015 | [9] 0.007 | gefitinib -0.01

HARS2 (UniProt P49590)
inactive: vemurafenib 0.009 | [1] 0.096 | barasertib 0.023 | [2] 0.068 | volasertib -0.033 | [3] 0.026 | [4] 0.047 | [5] 0.056 | saracatinib -0.049 | sotrastaurin 0.092 | alvocidib 0.041 | Tubastatin A -0.039 | [6] -0.053 | defactinib -0.012 | [7] -0.005 | encorafenib 0.178 | [8] -0.011 | alisertib -0.017 | [9] 0.047 | gefitinib 0.003

HBS1L isoform 2 (UniProt Q9Y450)
inactive: vemurafenib 0.045 | [1] 0.004 | barasertib -0.038 | [2] 0.088 | volasertib -0.025 | [3] -0.038 | [4] -0.019 | [5] -0.022 | saracatinib -0.01 | sotrastaurin 0.005 | alvocidib -0.015 | Tubastatin A 0.05 | [6] 0.015 | defactinib 0.016 | [7] 0.048 | encorafenib 0.072 | [8] -0.052 | alisertib -0.046 | [9] -0.056 | gefitinib 0.013

GTF2H4 (UniProt Q92759)
inactive: vemurafenib -0.047 | [1] 0.007 | barasertib 0.039 | [2] -0.099 | volasertib -0.046 | [3] 0.028 | [4] 0.063 | [5] -0.075 | saracatinib 0.029 | sotrastaurin 0.034 | alvocidib 0.005 | Tubastatin A -0.069 | [6] 0.018 | defactinib 0.085 | [7] -0.01 | encorafenib 0.025 | [8] -0.015 | alisertib 0.016 | [9] 0.02 | gefitinib -0.022

H1-4 (UniProt P10412)
inactive: vemurafenib 0.012 | [1] 0.012 | barasertib -0.031 | [2] 0.089 | volasertib 0.007 | [3] -0.092 | [4] -0.286 | [5] 0.073 | saracatinib 0.013 | sotrastaurin -0.029 | alvocidib -0.021 | Tubastatin A 0.006 | [6] 0.037 | defactinib -0.016 | [7] 0.005 | encorafenib 0.025 | [8] -0.108 | alisertib -0.017 | [9] 0.012 | gefitinib -0.075

GTF2H1 (UniProt P32780)
inactive: vemurafenib 0.013 | [1] 0.014 | barasertib 0.014 | [2] -0.021 | volasertib -0.028 | [3] -0.028 | [4] -0.042 | [5] -0.075 | saracatinib 0.018 | sotrastaurin -0.012 | alvocidib -0.053 | Tubastatin A -0.023 | [6] 0.05 | defactinib 0.041 | [7] 0.031 | encorafenib -0.004 | [8] -0.059 | alisertib 0.065 | [9] -0.021 | gefitinib -0.015

GSN (UniProt P06396)
inactive: vemurafenib -0.036 | [1] 0.005 | barasertib 0.014 | [2] 0.016 | volasertib -0.053 | [3] -0.002 | [4] -0.046 | [5] 0.015 | saracatinib -0.022 | sotrastaurin 0.003 | alvocidib -0.007 | Tubastatin A -0.011 | [6] -0.002 | defactinib 0.014 | [7] 0.089 | encorafenib -0.057 | [8] 0.073 | alisertib 0.006 | [9] -0.029 | gefitinib -0.001
